Primary screen of a compound library

The chains behind the UniProt entries cited, without tags or fusion partners. Residues count along the entry.
UniProt Q4DA54, 1-478: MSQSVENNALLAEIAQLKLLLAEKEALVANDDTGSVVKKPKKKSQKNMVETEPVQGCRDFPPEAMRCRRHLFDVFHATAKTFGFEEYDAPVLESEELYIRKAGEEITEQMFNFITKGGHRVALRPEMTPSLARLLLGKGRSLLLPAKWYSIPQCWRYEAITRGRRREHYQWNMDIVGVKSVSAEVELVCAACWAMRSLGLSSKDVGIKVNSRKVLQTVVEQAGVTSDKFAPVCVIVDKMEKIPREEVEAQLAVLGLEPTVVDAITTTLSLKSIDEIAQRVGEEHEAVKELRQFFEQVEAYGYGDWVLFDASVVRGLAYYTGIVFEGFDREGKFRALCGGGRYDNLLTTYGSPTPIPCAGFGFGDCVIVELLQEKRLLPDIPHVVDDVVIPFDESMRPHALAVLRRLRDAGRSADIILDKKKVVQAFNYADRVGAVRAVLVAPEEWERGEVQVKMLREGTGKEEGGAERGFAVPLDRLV

Toxoplasma: 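Assay of Toxoplasma gondii numbers, read through their beta-galactosidase reporter with a colour substrate. Concentration: 10 µM. The record gives no direction; the compounds picked for IC50 retests had high values, so higher reads as fewer parasites. Of about 67,000 compounds tested this way, about 260 (0.38%) reached 50% or more in at least one test.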
TcHisRS: 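Enzyme assay of histidyl-tRNA synthetase; the read-out is not stated. Target: Histidine-tRNA ligase, Trypanosoma cruzi CL Brener (UniProt Q4DA54). Compounds at 30 µM. Higher reads as stronger inhibition (inferred: compounds with an IC50 in retests scored well above the rest). About 69,000 compounds were tested under these conditions; 0.045% (about 31) showed 50% or more at least once.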

The filed quantity is “Percent Effect” (%). How 0% and 100% were set is not recorded. Most values in the screen are low, and negative values occur. Compounds were drawn at random from those tested, without regard to their results.

With Cn1ccnc1CN1CCC2(CC1)Cc1ccccc1CNC2=O.O=C(O)C(F)(F)F the screen gave Toxoplasma: -6.203%. c1ccc(-c2cc(CNCCN3CCCC3)c3nnnn3c2)cc1 gave Toxoplasma: -19.71%; TcHisRS: 5.224%. Result for Cc1nn(C)c(Oc2ccc(Cl)cc2)c1CN1CCC(CN)C1 (stereo unspecified) was Toxoplasma: 13.41%; TcHisRS: 3.911%. CNC(=O)[C@H]1CO[C@H]2CCN(c3ncc(F)cn3)C[C@H]2C1 read TcHisRS: 0.9524%.

For Cc1ccc(=O)n(CC(=O)N2CCCC(c3nc(C)c(C)s3)C2)n1 (stereo unspecified) the result was Toxoplasma: -4.959%; TcHisRS: -0.578%. Result for O=C(CCCn1ccnc1)N[C@H]1CN(C2CCCC2)C[C@@H]1C1CC1 was Toxoplasma: -6.54%; TcHisRS: 3.448%. Result for Cc1ncsc1C(=O)NCC1CCC2(CCNCC2)CO1.Cl (stereo unspecified) was Toxoplasma: 2.427%. For CS(=O)(=O)N1CCc2c(cccc2NC(=O)Nc2ccccn2)C1 the result was Toxoplasma: 10.7%; TcHisRS: 11.67%.

Result for C[C@@H]1CN(Cc2ccsc2)C[C@]12CCN(Cc1cccnc1)C2=O was TcHisRS: 4.511%. Result for CN(CCNC(=O)c1ccnc(-n2ccnc2)c1)C1CC1 was Toxoplasma: 9.353%; TcHisRS: 2.632%. Result for O=C(NC[C@H]1OC[C@@H](NCc2cccs2)[C@@H]1O)N1CCOCC1 was Toxoplasma: -5.133%; TcHisRS: -7.609%. CSCC(C)(O)CNc1ncccc1C(F)(F)F (stereo unspecified) gave Toxoplasma: -0.5963%; TcHisRS: 1.587%.

For CC(C)Cc1noc(CN2CCOCC2C)n1 (stereo unspecified) the result was Toxoplasma: -3.487%; TcHisRS: 5.941%. CC(=O)c1ccc(OCC(=O)c2cccn2C)cc1 read Toxoplasma: 8.439%; TcHisRS: 7.071%. O=C(O)C(F)(F)F.[H][C@@]12CCN(CCc3ccccc3)C[C@@]1([H])O[C@H](C(=O)N1CCCC1)C2 read Toxoplasma: -1.498%. With O=C(O)C(F)(F)F.[H][C@@]12OCCN(c3ncccn3)[C@@]1([H])CC[C@H]2OCC(=O)N1CCCC1 the screen gave Toxoplasma: -6.866%.

For NCCc1n[nH]c(=O)n1-c1cccc(Cl)c1Cl the result was Toxoplasma: -4.189%; TcHisRS: 10.4%. For CC(C)CC(NC(=O)CSc1ccc(F)c(Cl)c1)C(=O)O (stereo unspecified) the result was Toxoplasma: 6.527%; TcHisRS: 6.433%. CCCNC(=O)c1cc2c(s1)CCN2C(=O)c1ccccc1 gave Toxoplasma: 16.76%; TcHisRS: -44.76%. CCC(O)CNC(=O)c1cc(COc2ccc(OC)cc2Cl)[nH]n1 (stereo unspecified) gave Toxoplasma: -8.737%; TcHisRS: 9.524%.

Cc1nc(C2CCCN2C(=O)CCCn2cncn2)no1 (stereo unspecified) gave Toxoplasma: 12.95%; TcHisRS: 4.571%. With [H][C@]12CC[C@]([H])(CN(C3Cc4ccccc4C3)C1)N(Cc1cc(C)no1)C2 the screen gave Toxoplasma: 4.313%. With COCC1c2c(cnn2C)CCN1C(=O)c1cscn1.O=C(O)C(F)(F)F (stereo unspecified) the screen gave Toxoplasma: 15.35%. Cc1nnc([C@@H]2C[C@H]3CN(C(=O)C4CC4)C[C@H]3O2)[nH]1 read TcHisRS: 5.063%.

Result for CCOC(=O)CC(C)NC(=O)c1cn(Cc2ccccc2F)nn1 (stereo unspecified) was Toxoplasma: -3.767%; TcHisRS: 1.316%. COCC(=O)N1CCC2(CCCN(Cc3cc(OC)ccc3F)C2)C1 (stereo unspecified) gave Toxoplasma: -1.507%; TcHisRS: 5.941%. With CCN(Cc1cnn(CC)c1)C(=O)CN1C(=O)CCc2ccccc21 the screen gave Toxoplasma: 6.18%; TcHisRS: 6.952%. Result for Cc1ccn2ncc(C(=O)N3CCCC(n4cccn4)C3)c2n1 (stereo unspecified) was Toxoplasma: -14.32%; TcHisRS: 4.36%.

Result for NC(=O)CN1C(=O)CO[C@H]2CN(Cc3ccccc3)C[C@H]21 was TcHisRS: 0.4975%. Cc1nccn1C1CCCN(C(=O)c2cnn(C)c2C2CC2)C1 (stereo unspecified) read Toxoplasma: 6.758%; TcHisRS: 7%. Result for O=C1CNc2ncnc(N3CCN(c4ccccc4F)CC3)c2N1 was Toxoplasma: -11.35%; TcHisRS: -0.4464%. For CC(C)NC(=O)CNC(=O)OC(C)(C)C the result was Toxoplasma: -3.653%; TcHisRS: 5.263%.

With O=C(O)C(F)(F)F.O=C(O)C(F)(F)F.O=C(O)C(F)(F)F.c1cncc(CN2CCCC3(COCCN(c4cnccn4)C3)C2)c1 (stereo unspecified) the screen gave Toxoplasma: 21.46%. Result for Cc1ccc(CC(=O)NC(C)C(=O)N2CCS(=O)(=O)CC2)cc1 (stereo unspecified) was Toxoplasma: -0.8078%; TcHisRS: 5.833%. For O=C(CCCc1ccccn1)NCC(O)c1c(F)cccc1F (stereo unspecified) the result was Toxoplasma: -20.05%; TcHisRS: 4.938%.

For reference, 2 entries once more:

SMILES,Toxoplasma,TcHisRS
CC(=O)c1ccc(OCC(=O)c2cccn2C)cc1,8.439,7.071
CCOC(=O)CC(C)NC(=O)c1cn(Cc2ccccc2F)nn1 (stereo unspecified),-3.767,1.316

Data taken from ChEMBL document CHEMBL3988442, “University of Dundee, Small-Polar-MMV Screening Library” (2021).